Library compounds against nucleic acid targets

Targets (5′ to 3′):
PreQ1: PreQ1 riboswitch RNA pseudoknot, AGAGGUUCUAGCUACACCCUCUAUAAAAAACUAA. From B. subtilis. Hit rate about 0.7% of about 24,000 compounds.
SAM-II: SAM-II riboswitch RNA pseudoknot, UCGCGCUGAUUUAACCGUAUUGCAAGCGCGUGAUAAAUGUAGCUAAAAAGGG. Hit rate about 1% of about 21,000 compounds.
TPP: TPP riboswitch RNA three-way junction, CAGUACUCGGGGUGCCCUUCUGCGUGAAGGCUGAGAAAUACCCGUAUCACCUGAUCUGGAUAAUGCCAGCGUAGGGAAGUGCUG. Hit rate about 0.7% of about 24,000 compounds.

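The test is a small-molecule microarray: each compound is printed twice on a reactive slide, and binding shows as fluorescence of the labelled oligonucleotide after washing. For the PreQ1, TPP and SAM-II riboswitches the laboratory earlier reported (doi:10.1038/s41467-019-09493-3) 1 µM RNA, 2 h, and a rule that included a mean Z-score above 3 (spot signal-to-noise against the whole library), a score well above that on a control array, and duplicate spots agreeing (coefficient of variation under 100). The data file gives only the calls; its cut-offs may differ, and compounds hitting several targets are kept. These are primary screening calls, not affinities; a compound without a hit may have attached poorly or may still bind in solution.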
“active” means called a hit, “inactive” means screened and not called a hit.
This is an unselected part of the compounds tested.
A target missing from an entry has no call listed here.

With Cn1c(=O)c2c(nc(OCCc3ccccc3)n2C)n(C)c1=O the screen gave PreQ1: inactive; SAM-II: inactive; TPP: inactive. With OC(CNC1CCCC1)COc1ccc(OCC(O)CNC2CCCC2)cc1 (stereo not drawn) the screen gave PreQ1: inactive; SAM-II: active; TPP: inactive. With Cc1cc2nc(CNC(C)Cn3cncn3)[nH]c2cc1C (stereo not drawn) the screen gave PreQ1: inactive; SAM-II: inactive; TPP: inactive. For CC(NC(=O)c1cccc(CCC(C)(C)O)c1)c1nnc(N)s1 (stereo not drawn) the calls were PreQ1: inactive; SAM-II: inactive; TPP: inactive.

CNCC(=O)NCCCc1nc2c(C)c(C)ccc2[nH]1 was scored PreQ1: inactive; SAM-II: inactive; TPP: inactive. Calls for Cc1ccc(Nc2nc(C)cc(N3CCN(S(=O)(=O)c4cccc(C)c4)CC3)n2)cc1 are PreQ1: inactive; TPP: inactive. Calls for CCOc1ccc2oc(-c3ccccc3)c(C(=O)N3CCN(CCO)CC3)c2c1 are PreQ1: inactive; SAM-II: inactive; TPP: inactive. With Cc1ccc(OCCNc2ccc(C(F)(F)F)cc2[N+](=O)[O-])cc1C the screen gave PreQ1: inactive; SAM-II: inactive; TPP: inactive.

For COc1ccc(-n2nc(-c3ccccc3)n(CC(=O)NCCCO)c2=O)cc1 the calls were PreQ1: inactive; SAM-II: inactive; TPP: inactive. CC(CC(F)(F)F)NCCc1csc(-c2cccnc2)n1 (stereo not drawn) was scored PreQ1: inactive; SAM-II: inactive; TPP: inactive. With CNC1CCC(N(Cc2ccc(OC)c(-c3ccc(C#N)cc3)c2)C(=O)c2sc3ccccc3c2Cl)CC1 (stereo not drawn) the screen gave PreQ1: inactive; SAM-II: inactive; TPP: inactive. COc1ccccc1OCC(O)Cn1c(C2CC(=O)N(c3ccc(C)cc3)C2)nc2ccccc21 (stereo not drawn) was scored PreQ1: inactive; TPP: inactive.

For Nc1nonc1C(=O)N1CCN(C(=O)c2cccc(Cl)c2)CC1 the calls were PreQ1: inactive; TPP: inactive. c1ccc(-c2nc3c4ccccc4nc(NCCCN4CCCCCC4)n3n2)cc1 was scored PreQ1: inactive; TPP: active. Calls for COc1cc(CNCCc2ccc(OC)c(OC)c2)ccc1O are PreQ1: inactive; SAM-II: inactive; TPP: inactive. With COc1ccc(-c2nc3ncccn3c2Nc2cccc(C(F)(F)F)c2)cc1 the screen gave PreQ1: inactive; SAM-II: inactive; TPP: inactive.

With CN(Cc1cnc(N)nc1)C(=O)c1ccc(CN2CCCCC2)cc1 the screen gave PreQ1: inactive; SAM-II: inactive; TPP: inactive. C[C@H]1[C@H](NC(=O)C(=NOC(C)(C)C(=O)O)c2csc(N)n2)C(=O)N1S(=O)(=O)O was scored PreQ1: inactive; SAM-II: inactive; TPP: inactive. With COCCCN1C(=O)CC[C@H]2CN(c3nc(N)nc4[nH]ncc34)CC[C@H]21 the screen gave PreQ1: inactive; SAM-II: inactive; TPP: inactive. For Br.NCCCC(=O)OC1N=C(c2ccccc2Cl)c2cc(Br)ccc2NC1=O (stereo not drawn) the calls were PreQ1: inactive; SAM-II: active; TPP: inactive.

Calls for COc1ccc(C2(Nc3cccc(F)c3)C(=O)c3ccccc3C2=O)cc1 are PreQ1: inactive; SAM-II: inactive; TPP: inactive. Calls for CCNCc1cc(Br)cc(OC)c1OCC are PreQ1: inactive; SAM-II: inactive; TPP: inactive. With COc1ccc(-c2cc3nc(C)cc(NCCN4CCOCC4)n3n2)cc1OC the screen gave PreQ1: inactive; TPP: inactive. With COC(=O)c1[nH]c2cc(Cl)ccc2c1N the screen gave PreQ1: inactive; SAM-II: inactive; TPP: inactive.

Cc1ccc(C(=O)NCCNc2ccc(Cl)cc2[N+](=O)[O-])o1 was scored PreQ1: active; SAM-II: active; TPP: inactive. Calls for CCN(CC)CCOC(=O)c1ccc2nc(NC(=O)c3ccc(N)cc3)sc2c1 are PreQ1: inactive; SAM-II: inactive; TPP: active. For CCCCNCC(=O)Nc1ccc(Br)cc1 the calls were PreQ1: inactive; SAM-II: inactive; TPP: inactive. With COCc1ccc(C(=O)Nc2ccccc2C(=O)N2CC[C@H](O)[C@@H](O)C2)o1 the screen gave PreQ1: inactive; SAM-II: inactive; TPP: inactive.

Clc1nc(Cl)nc(-c2cn(-c3ccccc3)c3ccccc23)n1 was scored PreQ1: inactive; SAM-II: inactive; TPP: inactive. Cc1cc(C)n(C(C)CNCC(=O)Nc2c(C)cccc2C(C)C)n1 (stereo not drawn) was scored PreQ1: inactive; SAM-II: inactive; TPP: inactive. For O=C1OC(CN(Cc2ccccc2)Cc2ccccc2)CN1/N=C/c1ccc([N+](=O)[O-])o1 (stereo not drawn) the calls were PreQ1: inactive; SAM-II: inactive; TPP: inactive. O=C(c1cn2cc(Cl)ccc2n1)N1CC[C@@H](c2ccc(F)cc2)[C@H](O)C1 was scored PreQ1: inactive; SAM-II: inactive; TPP: inactive.

O[C@H]1Cc2ccccc2[C@H]1Nc1nccc(C2CCCC2)n1 was scored PreQ1: inactive; SAM-II: inactive; TPP: inactive. For CCc1cc2c(=O)c(-c3nc(C)cs3)c(N)oc2cc1O the calls were PreQ1: inactive; TPP: inactive. With CCc1cc(C#N)ccc1NC(=O)N1CCN(Cc2ccccc2)CC1CO (stereo not drawn) the screen gave PreQ1: inactive; SAM-II: inactive; TPP: inactive. With CCCc1n[nH]c2c1C(c1cc(OC)ccc1OC)C(C#N)=C(N)O2 (stereo not drawn) the screen gave PreQ1: inactive; SAM-II: inactive; TPP: inactive.

For Cc1cccc(CNCC2CCCO2)c1.Cl (stereo not drawn) the calls were PreQ1: inactive; SAM-II: inactive; TPP: inactive. Calls for O=C(CC(c1ccccc1)c1ccccc1Cl)NCCNc1cccnc1 (stereo not drawn) are PreQ1: inactive; SAM-II: inactive; TPP: inactive. For CCc1ccc(C2C(C#N)=C(N)Oc3[nH]nc(-c4ccc5c(c4)OCO5)c32)cc1 (stereo not drawn) the calls were PreQ1: inactive; SAM-II: inactive; TPP: inactive. Calls for Cc1nc(-c2ccc(Cn3ccnc3-c3cc4n(n3)CCNC4)cc2)no1 are PreQ1: inactive; SAM-II: inactive; TPP: inactive.

With O=C(Nc1ccc(SCc2ccco2)cc1)N1CCOCC(O)C1 (stereo not drawn) the screen gave PreQ1: inactive; SAM-II: inactive; TPP: inactive. Calls for COc1cc(N2CCc3nnc(CCc4ccccc4)n3CC2)nc(N)n1 are PreQ1: inactive; SAM-II: inactive; TPP: inactive.

4 of the entries, repeated:

SMILES	PreQ1	SAM-II	TPP
COC(=O)c1[nH]c2cc(Cl)ccc2c1N	inactive	inactive	inactive
COCc1ccc(C(=O)Nc2ccccc2C(=O)N2CC[C@H](O)[C@@H](O)C2)o1	inactive	inactive	inactive
COc1cc(CNCCc2ccc(OC)c(OC)c2)ccc1O	inactive	inactive	inactive
Cc1ccc(OCCNc2ccc(C(F)(F)F)cc2[N+](=O)[O-])cc1C	inactive	inactive	inactive

Calls as published in the ROBIN set (doi:10.1002/anie.202211358).